Assay results as given in US20260256761A1, “COMPOSITIONS AND METHODS FOR THE IDENTIFICATION OF INHIBITORS OF AND TREATMENT FOR ECTOPIC CALCIFICATION” (UNIVERSITY OF PITTSBURGH-OF THE COMMONWEALTH SYSTEM OF …, priority 2022, published 2026).
No constants are given. Whether binding was seen depends on the method and setting. For part of these data: In cells and extracts the contact can be indirect. Some results given as binding are weak or reduced against the parent protein; the word gives no strength.

Sequences of proteins named here, by UniProt entry; tags and fusion partners are left off. A change or cut given only in a name is not applied to a line headed by its entry.
UniProt P42229: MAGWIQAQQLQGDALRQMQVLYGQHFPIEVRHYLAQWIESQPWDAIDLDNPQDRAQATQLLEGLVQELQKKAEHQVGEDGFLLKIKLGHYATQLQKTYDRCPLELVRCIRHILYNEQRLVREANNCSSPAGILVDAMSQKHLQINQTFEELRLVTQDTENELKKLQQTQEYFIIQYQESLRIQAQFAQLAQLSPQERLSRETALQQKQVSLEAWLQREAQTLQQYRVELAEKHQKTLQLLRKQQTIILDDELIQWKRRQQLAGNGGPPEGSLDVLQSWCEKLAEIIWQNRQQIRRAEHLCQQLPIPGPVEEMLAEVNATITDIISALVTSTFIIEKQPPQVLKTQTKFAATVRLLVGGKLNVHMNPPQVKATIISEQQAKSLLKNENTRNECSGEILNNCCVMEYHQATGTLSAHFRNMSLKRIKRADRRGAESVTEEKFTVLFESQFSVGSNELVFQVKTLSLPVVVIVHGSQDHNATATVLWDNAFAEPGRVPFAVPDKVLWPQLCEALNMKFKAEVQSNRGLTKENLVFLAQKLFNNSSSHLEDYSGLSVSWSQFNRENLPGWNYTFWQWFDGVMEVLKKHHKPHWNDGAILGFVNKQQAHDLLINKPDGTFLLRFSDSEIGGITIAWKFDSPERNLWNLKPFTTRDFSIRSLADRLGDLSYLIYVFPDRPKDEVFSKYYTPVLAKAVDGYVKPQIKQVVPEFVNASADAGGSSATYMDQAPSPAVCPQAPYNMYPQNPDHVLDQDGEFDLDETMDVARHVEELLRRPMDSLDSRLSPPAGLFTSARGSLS
UniProt O14746: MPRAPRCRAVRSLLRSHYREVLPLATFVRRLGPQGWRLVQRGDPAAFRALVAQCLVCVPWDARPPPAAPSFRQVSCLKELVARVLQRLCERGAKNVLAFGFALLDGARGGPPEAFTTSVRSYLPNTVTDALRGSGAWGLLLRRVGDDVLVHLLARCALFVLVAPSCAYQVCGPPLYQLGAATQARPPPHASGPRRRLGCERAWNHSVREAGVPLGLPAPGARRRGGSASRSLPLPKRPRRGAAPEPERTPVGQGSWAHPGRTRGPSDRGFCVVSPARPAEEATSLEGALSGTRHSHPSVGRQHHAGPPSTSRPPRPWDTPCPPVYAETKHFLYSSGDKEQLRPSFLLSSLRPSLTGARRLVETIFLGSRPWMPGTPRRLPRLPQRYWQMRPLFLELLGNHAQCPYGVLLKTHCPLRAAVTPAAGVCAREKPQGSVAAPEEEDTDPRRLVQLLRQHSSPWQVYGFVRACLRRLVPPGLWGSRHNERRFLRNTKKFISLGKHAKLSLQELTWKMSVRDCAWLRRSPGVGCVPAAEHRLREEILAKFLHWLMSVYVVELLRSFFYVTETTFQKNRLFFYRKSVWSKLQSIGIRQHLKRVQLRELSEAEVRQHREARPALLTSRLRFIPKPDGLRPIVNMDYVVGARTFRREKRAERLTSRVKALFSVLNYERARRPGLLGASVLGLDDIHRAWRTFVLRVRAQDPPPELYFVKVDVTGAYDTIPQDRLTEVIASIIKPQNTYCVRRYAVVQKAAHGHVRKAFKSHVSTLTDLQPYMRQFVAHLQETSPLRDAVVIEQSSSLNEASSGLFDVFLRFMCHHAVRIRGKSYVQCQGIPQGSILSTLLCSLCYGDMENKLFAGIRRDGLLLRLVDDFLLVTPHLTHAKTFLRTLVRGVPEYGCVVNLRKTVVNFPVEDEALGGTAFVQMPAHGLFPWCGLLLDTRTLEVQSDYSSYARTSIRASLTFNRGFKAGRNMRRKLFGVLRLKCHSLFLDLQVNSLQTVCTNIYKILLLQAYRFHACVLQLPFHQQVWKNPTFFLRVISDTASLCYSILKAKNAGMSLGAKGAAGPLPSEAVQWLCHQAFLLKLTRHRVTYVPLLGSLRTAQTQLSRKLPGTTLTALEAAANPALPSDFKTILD

Assays:
[1] = target: Signal Transducer and Activator of Transcription 5A/B (STAT5), endogenous human (human) (UniProt P42229); experiment: proximity ligation assay in fixed CAVD AVICs
[2] = target: Signal Transducer and Activator of Transcription 5A/B (STAT5), endogenous human (human) (UniProt P42229); experiment: co-immunoprecipitation of endogenous proteins from hVICs in NT or OST media for ten days
[3] = target: Signal Transducer and Activator of Transcription 5A/B (STAT5), endogenous human (human) (UniProt P42229); experiment: proximity ligation assay in fixed control AVICs
[4] = target: Signal Transducer and Activator of Transcription 5A/B (STAT5), endogenous human (human) (UniProt P42229); experiment: proximity ligation assay (<40 nm) in fixed human AVICs, control and CAVD, 21 days in osteogenic medium
[5] = target: Signal Transducer and Activator of Transcription 5A/B (STAT5), endogenous human (human) (UniProt P42229); experiment: discussion summing up the PLA and ChIP results in AVICs
[6] = target: Signal Transducer and Activator of Transcription 5A/B (STAT5), endogenous human (human) (UniProt P42229); experiment: discussion summing up the PLA results in AVICs

Measured: binding

Telomerase reverse transcriptase (TERT), endogenous human (from UniProt O14746 1-1132) (enzyme)
binds: all assays above
